Laboratory results published in PubChem BioAssay AID720504 (National Center for Advancing Translational Sciences (NCATS), 2013).
“And” between values parts separate entries of the source, which are not always exact repeats. Equal values may be shown once. About 10,000 (2.8%) of roughly 360,000 compounds were called active. Inconclusive means that the source gave no clear call. Such entries were picked first, then a sample of the others. Calls come from the whole dose curve; as a rule, active = well fitted inhibition curve with a large enough effect; inconclusive = small, poorly fitted or top-dose-only effect; inactive = flat fitted curve, though single readings scatter. Where the call is inconclusive, the potency comes from a doubtful curve fit.

Sequences of proteins named here, by UniProt entry; tags and fusion partners are left off.
UniProt P53350, whole entry, looked up: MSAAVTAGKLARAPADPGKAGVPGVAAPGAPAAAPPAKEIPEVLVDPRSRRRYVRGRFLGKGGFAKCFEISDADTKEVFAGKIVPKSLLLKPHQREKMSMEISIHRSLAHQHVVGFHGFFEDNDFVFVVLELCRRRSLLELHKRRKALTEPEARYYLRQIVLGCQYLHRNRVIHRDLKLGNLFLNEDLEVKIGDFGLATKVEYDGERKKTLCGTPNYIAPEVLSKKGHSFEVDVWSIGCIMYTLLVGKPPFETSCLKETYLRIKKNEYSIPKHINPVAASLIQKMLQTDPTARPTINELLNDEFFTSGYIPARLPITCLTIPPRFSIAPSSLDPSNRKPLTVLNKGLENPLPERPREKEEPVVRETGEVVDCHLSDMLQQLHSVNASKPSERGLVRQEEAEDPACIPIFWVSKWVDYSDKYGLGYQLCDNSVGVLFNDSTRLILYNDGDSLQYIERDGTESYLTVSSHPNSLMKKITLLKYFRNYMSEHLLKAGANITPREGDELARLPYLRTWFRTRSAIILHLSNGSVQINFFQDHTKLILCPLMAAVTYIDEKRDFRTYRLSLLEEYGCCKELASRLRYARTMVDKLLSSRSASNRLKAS

molecular target: Serine/threonine-protein kinase PLK1 (Homo sapiens) (UniProt P53350); experiment: qHTS for Inhibitors of PLK1-PDB (polo-like kinase 1 - polo-box domain): Primary Screen; details: Plk1 PBD binding of FITC phosphopeptide, fluorescence polarization; note: nearly all actives have a fitted effect of over 65% in size; for max response, negative = inhibition: series mostly up to about 57 µM
% is set by controls: 0 for no effect and ±100 for the full control effect; potency is the fitted concentration of half-maximal effect.

| SMILES | Potency | max response, negative = inhibition |
| --- | --- | --- |
| S=c1[nH]nc(-c2ccn[nH]2)n1-c1ccccc1Cl | inconclusive: 29.9 µM [inhibitor, partial curve] | – |
| CN1CCC(O)(c2ccccc2)C(C(=O)c2ccccc2)C1 (configuration not stated) | inconclusive: 23.8 µM [inhibitor, partial curve] | – |
| O=C(NC1(C(F)(F)F)Oc2ccc(Cl)cc2O1)N1CCC2(CC1)OCCO2 (configuration not stated) | – | inactive: -0.905% |
| Cc1cc(C=C2C(=O)N(C)C(=S)N(C)C2=O)c(C)n1C1CCCCC1 | inconclusive: 11.9 µM [inhibitor, partial curve] | – |
| COc1ccccc1-n1c(O)c(C=NCc2ccc3c(c2)OCO3)c(=O)[nH]c1=O | – | inactive: -2.34% |
| Cc1cc(N2CCCC2)ccc1C=C(C#N)C#N | inconclusive: 21.2 µM [inhibitor, partial curve] | – |
| CCOc1cc(C=C2C(=O)NC(=S)NC2=O)ccc1O | active: 5.97 µM | – |
| CCCCCN1C(=O)c2cc(OC)ccc2[C@@]2(C(=O)OCC)Cc3cc(OC)ccc3[C@@H]12 | active: 4.74 µM | – |
| CC(C)(C)n1nnnc1C(c1ccnc2ccccc12)N1CCC2(CC1)C(=O)NCN2c1ccccc1 (configuration not stated) | – | inactive: -5.41% |
| CCOc1ccc(NS(=O)(=O)c2ccc(Cl)c(N=Nc3c(O)[nH]c(=S)[nH]c3=O)c2)cc1Br | inconclusive: 21.2 µM [inhibitor, partial curve] | – |
| CCn1c(O)c(C=Nc2ccc(N3CCOCC3)cc2)c(=O)n(CC)c1=S | active: 21.2 µM | – |
| Oc1c(Cl)cccc1Cc1cc(Cl)cc(Cl)c1O | active: 26.7 µM | – |
| CCN1/C(=C\C=C\C2=[N+](CC)c3ccccc3C2(C)C)C(C)(C)c2ccccc21 | – | inactive: 95.3% |
| COc1ccc(CNCCc2ccc3c(c2)OCO3)cc1Br | – | inactive: -3.05% |
| O=c1[nH]c(O)c(/C=C2\C=Nc3ccc(OCc4ccccc4)cc32)c(=O)[nH]1 | active: 23.8 µM | – |
| N#CC1=C(N)Oc2c(c(=O)oc3ccccc23)C1c1ccc([N+](=O)[O-])o1 (configuration not stated) | active: 21.2 µM | – |
| O=C(N/N=C/c1c(O)n(CCC2=CCCCC2)c(=S)[nH]c1=O)c1ccccc1 | inconclusive: 23.8 µM [inhibitor, single point] | – |
| C=Cn1c(P(=S)(N2CCOCC2)N2CCOCC2)cc2c1CCCC2 | inconclusive: 23.8 µM [inhibitor, single point] | – |
| COc1ccc(C(=O)C2CCCN(Cc3cccc(C)n3)C2)c(OC)c1 (configuration not stated) | – | inactive: -1.46% |
| CCCc1[nH][nH]c(=O)c1C(c1ccccc1)C(C#N)C#N (configuration not stated) | active: 11.9 µM | – |
| CN1C(=O)N(C)C(=O)C2(Sc3ccccc3C2=O)C1=O | active: 5.32 µM | – |
| O=C(N=Nc1c(O)[nH]c(=O)[nH]c1=O)C1COc2cc3ccccc3cc2O1 (configuration not stated) | inconclusive: 21.2 µM [inhibitor, partial curve] | – |
| CN1C(=O)C(Cc2cccs2)C(=O)N(C)C1=O | inconclusive: 37.7 µM [inhibitor, single point] | – |
| CCOC(=O)[C@]12Cc3ccccc3[C@H]1N(Cc1ccccc1)C(=O)c1cc(F)c(F)cc12 | inconclusive: 26.7 µM [inhibitor, single point] | – |

| SMILES | Potency | max response, negative = inhibition |
| --- | --- | --- |
| Cc1cc(OCc2nn[nH]n2)c2c3c(c(=O)oc2c1)CCC3 | – | inactive: -1.41% |
| CC(=O)c1ccc(OC(NC(=O)Cc2ccccc2)C(Cl)(Cl)Cl)cc1 (configuration not stated) | active: 13.4 µM | – |
| CC(O)CNc1ccc([N+](=O)[O-])c2cccnc12 (configuration not stated) | – | inactive: 4.05% |
| CCOc1ccc(N2C(=O)NC(=O)/C(=C\c3ccccc3[N+](=O)[O-])C2=O)cc1 | active: 9.47 µM | – |
| CN(C)c1cccc2c(C#N)ccc(N(C)C)c12 | inconclusive: 26.7 µM [inhibitor, single point] | – |
| CCCC(C)C1(CC)C(=O)NC(=O)N=C1N (configuration not stated) | inconclusive: 29.9 µM [inhibitor, partial curve] | – |
| CCOC(=O)C(O)(c1ccc(N(CC)C(=O)OC)cc1)C(F)(F)F (configuration not stated) | – | inactive: -0.0207% |
| C=CCn1c(O)c(/C=C2\C=Nc3ccccc32)c(=O)[nH]c1=O | inconclusive: 7.52 µM [inhibitor, partial curve] | – |
| O=C1NC(=O)N(c2ccccc2F)C(=O)/C1=C/c1cn(CC(=O)N2CCOCC2)c2ccccc12 | active: 4.74 µM | – |
| N[C@@H](Cc1c[nH]c2ccccc12)c1nnc(SCc2ccccc2)o1 | – | inactive: -2.64% |
| O=C(O)COc1ccc(Br)cc1C(c1c(C(=O)O)[nH]c2ccccc12)c1c(C(=O)O)[nH]c2ccccc12 | active: 26.7 µM | – |
| COc1cccc(CCNCc2c(F)cccc2F)c1 | inconclusive: 8.44 µM [inhibitor, single point] | – |
| O=C1NC(=O)C(=Cc2ccc(-c3cc(Cl)ccc3[N+](=O)[O-])o2)C(=O)N1 | active: 1.5 µM | – |
| CCCC(=O)NC(Oc1ccc(Cl)cc1Cl)C(Cl)(Cl)Cl (configuration not stated) | inconclusive: 11.9 µM [inhibitor, partial curve] | – |
| Cn1cccc1/C=C1\C(=O)NC(=O)N(Cc2ccccc2Cl)C1=O | – | inconclusive: -25.7% [inhibitor] |
| CCOC(=O)[C@]12Cc3cc(OC)ccc3[C@H]1N(C)C(=O)c1cc(OC)ccc12 | active: 9.47 µM | – |
| Clc1ccc(C(Cl)(Cl)Cl)c(Cl)c1 | active: 10.6 µM | – |
| Cc1cc([N+](=O)[O-])c2ccccc2[n+]1[O-] | inconclusive: 26.7 µM [inhibitor, single point] | – |
| COCCNC(=O)Cn1cc(/C=C2\C(=O)NC(=O)N(c3ccccc3F)C2=O)c2ccccc21 | active: 2.99 µM | – |
| Cc1sc(-n2c(C)cc(C=C3C(=O)NC(=O)NC3=O)c2C)c(C#N)c1C | inconclusive: 0.423 µM [inhibitor, full curve, poor fit] | – |
| CN1C(=O)C(Cc2ccccc2)C(=O)N(C)C1=O | inconclusive: 23.8 µM [inhibitor, partial curve] | – |
| C#C[C@]1(O)CC[C@H]2[C@@H]3CCC4=Cc5nc6nc7ccccc7n6cc5C[C@]4(C)[C@H]3CC[C@@]21C | inconclusive: 21.2 µM [inhibitor, partial curve] | – |
| NCCc1cc(O)c(O)cc1O | active: 29.9 µM and active: 15 µM | – |
| Oc1c(Br)cc(Br)cc1Br | – | inactive: -6.92% |

| SMILES | Potency | max response, negative = inhibition |
| --- | --- | --- |
| Cc1ccc([N+](=O)[O-])cc1N | inconclusive: 26.7 µM [inhibitor, single point] | – |
| CCOP(=O)(OCC)Oc1cc(C)c(N(C)C)c(C)c1 | inconclusive: 26.7 µM [inhibitor, single point] | – |
| Cc1c(C(=O)O)cccc1-n1c(C)cc(/C=C2\C(=O)NC(=O)N(c3ccc4c(c3)OCO4)C2=O)c1C | inconclusive: 23.8 µM [inhibitor, partial curve] | – |
| COc1ccc(OC)c(NP(=O)(Oc2ccc(Cl)cc2)Oc2ccc(Cl)cc2)c1 | – | inactive: 1.7% |
| C=C1CCN([C@@H](Cc2ccccc2)C(=O)Nc2ccc(OC)cc2)S(=O)(=O)c2ccccc21 | inconclusive: 67 µM [inhibitor, partial curve] | – |
| CCOC(=O)[C@]12Cc3cc4ccccc4cc3[C@H]1N(Cc1ccccc1)C(=O)c1cc(OC)ccc12 | active: 10.6 µM | – |
| C=CCn1c(O)c(C(=O)CCCCCC)c(=O)[nH]c1=O | – | inactive: -11.4% |
| CCOC(=O)[C@]12Cc3cc(C)ccc3[C@H]1N(CCC(=O)OC)C(=O)c1cc(OC)ccc12 | inconclusive: 11.9 µM [inhibitor, single point] | – |
| CCCCn1c(NS(=O)(=O)c2ccc(C)cc2)c(C(=O)OCC)c2nc3ccccc3nc21 | inconclusive: 21.2 µM [inhibitor, single point] | – |
| NNC(=O)c1ccc(Cl)cc1 | – | inactive: -2.58% |
| COc1cc(/C=C2/C(=O)NC(=O)N(c3ccccc3)C2=O)ccc1O | active: 8.44 µM | – |
| CC1(C)C(C(=O)N2CCN(c3ccc(Cl)cc3)CC2)C1(C)C | – | inactive: -11.3% |
| CCNC(=S)N(C)CCc1cc2c(c(OC)c1C=C1C(=O)N(C)C(=O)N(C)C1=O)OCO2 | inconclusive: 29.9 µM [inhibitor, single point] | – |
| Nc1ncc([N+](=O)[O-])s1 | inconclusive: 21.2 µM [inhibitor, partial curve] | – |
| S=c1[nH]nc(C2CC2)n1Cc1ccco1 | inconclusive: 29.9 µM [inhibitor, partial curve] | – |
| O=C(Nc1ccc(Cl)cc1)N1CC1 | – | inactive: -5.37% |
| CCOC(=O)[C@]12Cc3cc(OC)ccc3[C@H]1N(C)C(=O)c1ccccc12 | inconclusive: 33.6 µM [inhibitor, single point] | – |
| Fc1c(F)c(F)c(N2CCNCC2)c(F)c1F | inconclusive: 21.2 µM [inhibitor, single point] | – |
| Cc1cc(C=C2C(=O)NC(=O)NC2=O)c(C)n1-c1cccnc1 | inconclusive: 29.9 µM [inhibitor, partial curve] | – |
| CN(C)/C=C1/C(=O)NC(=O)N(CCNc2ncc(C(F)(F)F)cc2Cl)C1=O | inconclusive: 21.2 µM [inhibitor, partial curve] | – |
| O=C(O)c1cccc2c1NC(c1cccc([N+](=O)[O-])c1)C1CC(Sc3ccccc3[N+](=O)[O-])C(Cl)C21 (configuration not stated) | active: 18.9 µM and active: 13.4 µM | – |
| N#Cc1c(/N=C/c2c(O)n(Cc3ccco3)c(=O)[nH]c2=O)sc2c1CCCC2 | active: 23.8 µM | – |
| CCc1ccc(/C=C(/C#N)C(N)=S)cc1 | active: 7.52 µM | – |
| COc1ccc([N+](=O)[O-])cc1CSc1ccccn1 | inconclusive: 26.7 µM [inhibitor, partial curve] | – |

Quoted from the listing.
Entry of `CCc1ccc(/C=C(/C#N)C(N)=S)cc1` under Potency: active: 7.52 µM
Entry of `CCOC(=O)[C@]12Cc3cc(OC)ccc3[C@H]1N(C)C(=O)c1ccccc12` under Potency: inconclusive: 33.6 µM [inhibitor, single point]
Entry of `CCOC(=O)[C@]12Cc3cc4ccccc4cc3[C@H]1N(Cc1ccccc1)C(=O)c1cc(OC)ccc12` under Potency: active: 10.6 µM
Entry of `N#Cc1c(/N=C/c2c(O)n(Cc3ccco3)c(=O)[nH]c2=O)sc2c1CCCC2` under Potency: active: 23.8 µM
Entry of `Nc1ncc([N+](=O)[O-])s1` under Potency: inconclusive: 21.2 µM [inhibitor, partial curve]
Entry of `C=C1CCN([C@@H](Cc2ccccc2)C(=O)Nc2ccc(OC)cc2)S(=O)(=O)c2ccccc21` under Potency: inconclusive: 67 µM [inhibitor, partial curve]
